Where a name gives a salt, the structure may show the parent alone. Some of the results follow. Single values are uncertain here, since repeats match poorly.
Tested on: MDA-MB-468
Assay: phospho-S6 immunofluorescence (DAPI-normalised), per-plate z-score; higher = higher phospho-S6 signal (less pathway suppression)
Conditions: 24 h
Description: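 GPCR-targeted compound library (MedChemExpress HY-L006) tested on MDA-MB-468 PTEN-null TNBC cells in 384-well plates at 0.1, 1 or 10 uM, combined with vehicle, GDC0941 450 nM or lapatinib 1 uM, for 24 h. Phospho-S6 (S240/244) immunofluorescence normalised to DAPI and expressed as a per-plate z-score; values are the mean of biological triplicates.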

[1] = compound 0.1 µM, co-treatment: GDC0941 450 nM
[2] = compound 0.1 µM, co-treatment: lapatinib 1 uM
[3] = compound 0.1 µM, co-treatment: vehicle
[4] = compound 1 µM, co-treatment: GDC0941 450 nM
[5] = compound 1 µM, co-treatment: lapatinib 1 uM
[6] = compound 1 µM, co-treatment: vehicle
[7] = compound 10 µM, co-treatment: GDC0941 450 nM
[8] = compound 10 µM, co-treatment: lapatinib 1 uM
[9] = compound 10 µM, co-treatment: vehicle

Row | SMILES | phospho-S6 immunofluorescence (z-score) [1] | phospho-S6 immunofluorescence (z-score) [2] | phospho-S6 immunofluorescence (z-score) [3] | phospho-S6 immunofluorescence (z-score) [4] | phospho-S6 immunofluorescence (z-score) [5] | phospho-S6 immunofluorescence (z-score) [6] | phospho-S6 immunofluorescence (z-score) [7] | phospho-S6 immunofluorescence (z-score) [8] | phospho-S6 immunofluorescence (z-score) [9]
1 | Cc1noc(-c2ccc(-c3ccc(CC(=O)O)cc3)cc2)c1NC(=O)OC(C)c1ccccc1Cl (centres undefined) | 0.17 | 0.7 | -0.55 | 0.13 | 0.93 | 0.31 | 0.23 | 0.28 | 0.02
2 | Nc1ccc(/C=C/c2cccc(C(=O)O)n2)cc1 | 0.78 | 0.36 | -0.04 | 0.34 | 0.45 | 0.74 | 0.9 | 0.88 | 1.07
3 | Nc1ncnc2c1ncn2C1CCCO1 (centres undefined) | -1.06 | -0.57 | 1.17 | -0.75 | -0.22 | -1.25 | 0.45 | -0.67 | -0.21
4 | O=C(O[C@H]1CN2CCC1CC2)N1CCc2ccccc2[C@@H]1c1ccccc1 [Solifenacin (hydrochloride)] | 0.37 | 0.14 | -0.91 | -0.44 | -0.4 | -2.02 | 0.75 | 1.12 | -1.36
5 | NC[C@H](O)c1ccc(O)c(O)c1 [Norepinephrine (bitartrate monohydrate)] | 0.22 | 1.3 | -0.17 | 0.89 | 2 | 0.73 | 0.52 | 1.81 | 0.17
6 | C[C@H](NC(=O)CNC(=O)c1cccc(Cl)c1)c1ccccc1 | -0.39 | -0.36 | -0.04 | -0.63 | -0.16 | 0 | 0.04 | 0.45 | 0.46
